US8673976B2, “Medicament for prophylactic and/or therapeutic treatment of hepatic steatosis or non-alcoholic steatohepatitis” (Kowa Company, Ltd., priority 2007, dated 2014)
At least one compound was matched to its structure with a doubt left.

Tests used:
recurrence of hepatoma = conditions: clinical, long-term administration for one year; cited from earlier work
[1] = tested on: SD male rats on high fat diet (HFD32); assay: Action of NIK-333 for decreasing hepatic lipid amount in high fat diet rats (Example 1); type: in vivo, rat; conditions: oral once a day for 8 weeks
Description: For the experiment, 6-week old SD male rats (Charles River Japan) were used. HFD32 (Clea Japan) was used for the high fat diet group, and CE-2 (Clea Japan) was used for the normal control group. The feeding was restricted to 25±3 g for both of the groups. Administration of NIK-333 was started at the same time as the start of the loading of the high fat diet, and the drug was given once a day for 8 weeks by forcible continuous oral administration. After completion of the test, each liver was extracted, and triglyceride (H-TG) amount and cholesterol (H-T-chol) amount in the liver were measured. Hematoxylin-eosin (H.E.) and Oil Red O (O.R.) staining samples were prepared from the extracted liver, and histopathological examination was performed. Degree of fatty degeneration of the liver was graded into five categories on the basis of the examination of the H.E. staining sample, and scores were assigned. Further, from the O.R. staining sample, O.R. positive area in the liver sample area was calculated by using an image analyzer. Furthermore, triglyceride (S-TG), total cholesterol (S-T-chol), alanine aminotransferase (S-ALT), and aspartate aminotransferase (S-AST) levels in serum were measured.

## CC(C)=CCC/C(C)=C/CC/C(C)=C/C=C/C(C)=C/C(=O)O [NIK-333, (2E,4E,6E,10E)-3,7,11,15-tetramethyl-2,4,6,10,14-hexadecapentaenoic acid]
Recurrence of hepatoma
  recurrence of hepatoma after radical treatment: significantly inhibited recurrence of hepatoma
[1]
  amount of lipids in the liver (H-TG, H-T-chol, hepatic steatosis score, O.R. positive area; FIGS. 1 and 2): decreased the amount of lipids in the liver
[1]; serum
  blood transaminase (S-ALT, S-AST; FIG. 4): suppressing effect on the increase of blood transaminase
